# Some entries share one result that the patent states for a list of compounds. At least one structure is not confirmed: it was looked up by name or label, or the drawing left a doubt.
# System: C2C12 myotubes
# Test: Dexamethasone-induced atrophy of differentiated C2C12 myotubes, myotube diameter (ImageJ)
# Assay type: cell-based, mouse
# Details: Dex 10 μM + compound 30 μM, 24 hours
compound,measurement,setting,value
O=C(O)c1cc2c([nH]c3ccccc32)c([C@@H](O)CO)n1 [Dichotomine B],C2C12 myotube diameter (% of control),listed as compound 2,showed improvement effects
"C[C@H](O)c1nc(C(=O)O)cc2c1[nH]c1ccccc12 [Dichotominee A, Dichotomine A]",C2C12 myotube diameter (% of control),listed as compound 4,showed improvement effects
O=c1cc(-c2ccc(O)cc2)oc2c([C@@H]3O[C@H](CO)[C@@H](O)[C@H](O)[C@H]3O)c(O)c([C@@H]3OC[C@H](O)[C@H](O)[C@H]3O)c(O)c12 [Isoshaftoside],C2C12 myotube diameter (% of control),listed as compound 5,showed improvement effects
Glucodichotomine B,C2C12 myotube diameter (% of control),listed as compound 1,showed improvement effects
Shaftoside,C2C12 myotube diameter (% of control),listed as compound 3,showed improvement effects

# — patent US20260158094A1, “COMPOSITION FOR PREVENTING, IMPROVING OR TREATING SKELETAL MUSCLE ATROPHY OR SARCOPENIA COMPRISING EXTRACT OR ISOLATED COMPOUND FROM STELLARIA DICHOTOMA AS ACTIVE INGREDIENT” (INDUSTRY-UNIVERSITY COOPERATION FOUNDATION HANYANG …, priority 2023, published 2026)
